# Assay results published in the supplement of paper PMC8728848.
# This is one part of the list.
# B1: Epa20 (Candida glabrata) (protein)
# chain: MGSSHHHHHHSSGLVPRGSHMASSNIPNNYPLGCSNKYSGHLPGLKMELYSYNYVNPRHPDPQNPGKLDQLYDPNLLGTYECFDSSYKDINYPRVGYKSKTLIGRSDGVSGILNFNFVPPWGCMPQKGQLPPAYNFKSNITLSNFTMILFGYFKPKISGNHIFSLHGDDLIYLNFGAGNAFDCCRQESSADNFGNYQAFSLWGINWEKKTLTVYLDMNTYYPIRIFYNNRDYQAIFNFSFKTEFDSSPVIDFQDYFFFLRDIDGGCPGEV
# What was measured:
# Experiment in all cases: glycan array binding signal (z-score within array); higher = stronger binding
# Details in all cases: glycan notation: IUPAC condensed, linker removed
# [1] = molecular target: GlcNAc(b1-3)Gal(b1-4)GlcNAc(b1-3)Gal(b1-4)GlcNAc(b1-2)Man(a1-3)[GlcNAc(b1-3)Gal(b1-4)GlcNAc(b1-3)Gal(b1-4)GlcNAc(b1-2)Man(a1-6)]Man(b1-4)GlcNAc(b1-4)GlcNAc
# How it was run: (§1)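 Glycan array data came from 3228 arrays in the Consortium for Functional Glycomics database, and only arrays with an available protein sequence were kept. Glycan names were put into IUPAC-condensed notation, and columns mapping to the same glycan were averaged. The binding signal is a within-array Z-score, averaged across arrays of one protein sequence run at different concentrations or buffers and across linkers. A negative Z-score can be read as non-binding.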
# [2] = molecular target: GlcNAc(b1-3)Gal(b1-4)GlcNAc(b1-3)Gal(b1-4)GlcNAc(b1-2)Man(a1-3)[GlcNAc(b1-3)Gal(b1-4)GlcNAc(b1-3)Gal(b1-4)GlcNAc(b1-2)Man(a1-6)]Man(b1-4)GlcNAc(b1-4)[Fuc(a1-6)]GlcNAc
# How it was run: as §1
# [3] = molecular target: GlcNAc(b1-3)Gal(b1-4)GlcNAc(b1-3)Gal(b1-4)GlcNAc(b1-2)[GlcNAc(b1-3)Gal(b1-4)GlcNAc(b1-3)Gal(b1-4)GlcNAc(b1-6)]Man(a1-6)[GlcNAc(b1-3)Gal(b1-4)GlcNAc(b1-3)Gal(b1-4)GlcNAc(b1-2)Man(a1-3)]Man(b1-4)GlcNAc(b1-4)[Fuc(a1-6)]GlcNAc
# How it was run: as §1
# [4] = molecular target: GlcNAc(b1-3)Gal(b1-4)GlcNAc(b1-3)Gal(b1-4)GlcNAc(b1-3)Gal(b1-4)GlcNAc(b1-2)Man(a1-3)[GlcNAc(b1-3)Gal(b1-4)GlcNAc(b1-3)Gal(b1-4)GlcNAc(b1-3)Gal(b1-4)GlcNAc(b1-2)Man(a1-6)]Man(b1-4)GlcNAc(b1-4)GlcNAc
# How it was run: as §1
# [5] = molecular target: GlcNAc(b1-3)Gal(b1-4)GlcNAc(b1-3)Gal(b1-4)GlcNAc(b1-3)Gal(b1-4)GlcNAc(b1-2)Man(a1-3)[GlcNAc(b1-3)Gal(b1-4)GlcNAc(b1-3)Gal(b1-4)GlcNAc(b1-3)Gal(b1-4)GlcNAc(b1-2)Man(a1-6)]Man(b1-4)GlcNAc(b1-4)[Fuc(a1-6)]GlcNAc
# How it was run: as §1
# [6] = molecular target: GlcNAc(b1-3)Gal(b1-4)GlcNAc(b1-3)Gal(b1-4)GlcNAc(b1-3)Gal(b1-4)GlcNAc(b1-2)[GlcNAc(b1-3)Gal(b1-4)GlcNAc(b1-3)Gal(b1-4)GlcNAc(b1-3)Gal(b1-4)GlcNAc(b1-6)]Man(a1-6)[GlcNAc(b1-3)Gal(b1-4)GlcNAc(b1-3)Gal(b1-4)GlcNAc(b1-3)Gal(b1-4)GlcNAc(b1-2)Man(a1-3)]Man(b1-4)GlcNAc(b1-4)[Fuc(a1-6)]GlcNAc
# How it was run: as §1
# [7] = molecular target: GlcNAc(b1-3)Gal(b1-4)GlcNAc(b1-3)Gal(b1-4)GlcNAc(b1-3)Gal(b1-4)GlcNAc(b1-3)Gal(b1-4)GlcNAc(b1-2)Man(a1-3)[GlcNAc(b1-3)Gal(b1-4)GlcNAc(b1-3)Gal(b1-4)GlcNAc(b1-3)Gal(b1-4)GlcNAc(b1-3)Gal(b1-4)GlcNAc(b1-2)Man(a1-6)]Man(b1-4)GlcNAc(b1-4)GlcNAc
# How it was run: as §1
# [8] = molecular target: GlcNAc(b1-3)Gal(b1-4)GlcNAc(b1-3)Gal(b1-4)GlcNAc(b1-3)Gal(b1-4)GlcNAc(b1-3)Gal(b1-4)GlcNAc(b1-2)Man(a1-3)[GlcNAc(b1-3)Gal(b1-4)GlcNAc(b1-3)Gal(b1-4)GlcNAc(b1-3)Gal(b1-4)GlcNAc(b1-3)Gal(b1-4)GlcNAc(b1-2)Man(a1-6)]Man(b1-4)GlcNAc(b1-4)[Fuc(a1-6)]GlcNAc
# How it was run: as §1
# [9] = molecular target: GlcNAc(b1-3)Gal(b1-4)GlcNAc(b1-3)Gal(b1-4)GlcNAc(b1-3)Gal(b1-4)GlcNAc(b1-3)Gal(b1-4)GlcNAc(b1-2)[GlcNAc(b1-3)Gal(b1-4)GlcNAc(b1-3)Gal(b1-4)GlcNAc(b1-3)Gal(b1-4)GlcNAc(b1-3)Gal(b1-4)GlcNAc(b1-6)]Man(a1-6)[GlcNAc(b1-3)Gal(b1-4)GlcNAc(b1-3)Gal(b1-4)GlcNAc(b1-3)Gal(b1-4)GlcNAc(b1-3)Gal(b1-4)GlcNAc(b1-2)Man(a1-3)]Man(b1-4)GlcNAc(b1-4)[Fuc(a1-6)]GlcNAc
# How it was run: as §1
# [10] = molecular target: GlcNAc(b1-3)Gal(b1-4)GlcNAc(b1-3)Gal(b1-4)GlcNAc(b1-3)GalNAc
# How it was run: as §1
# [11] = molecular target: GlcNAc(b1-3)Gal(b1-4)GlcNAc(b1-3)GalNAc
# How it was run: as §1
# [12] = molecular target: GlcNAc(b1-3)Gal(b1-4)GlcNAc(b1-3)[GlcNAc(b1-3)Gal(b1-4)GlcNAc(b1-3)]GalNAc
# How it was run: as §1
# [13] = molecular target: GlcNAc(b1-3)Gal(b1-4)GlcNAc(b1-6)[Gal(b1-3)]GalNAc
# How it was run: as §1
# [14] = molecular target: GlcNAc(b1-3)Gal(b1-4)GlcNAc(b1-6)[GlcNAc(b1-3)Gal(b1-3)]GalNAc
# How it was run: as §1
# [15] = molecular target: GlcNAc(b1-3)Gal(b1-4)GlcNAc(b1-6)[GlcNAc(b1-3)]Gal(b1-4)GlcNAc
# How it was run: as §1
# [16] = molecular target: GlcNAc(b1-3)GalNAc
# How it was run: as §1
# [17] = molecular target: GlcNAc(b1-3)Man
# How it was run: as §1
# [18] = molecular target: GlcNAc(b1-3)[GlcNAc(b1-4)][GlcNAc(b1-6)]GlcNAc
# How it was run: as §1
# [19] = molecular target: GlcNAc(b1-3)[GlcNAc(b1-6)]Gal(b1-4)GlcNAc
# How it was run: as §1
# [20] = molecular target: GlcNAc(b1-3)[GlcNAc(b1-6)]GalNAc
# How it was run: as §1
# [21] = molecular target: GlcNAc(b1-4)Gal(b1-4)GlcNAc
# How it was run: as §1
# [22] = molecular target: GlcNAc(b1-4)GlcNAc
# How it was run: as §1
# [23] = molecular target: GlcNAc(b1-4)GlcNAc(b1-4)GlcNAc
# How it was run: as §1
# [24] = molecular target: GlcNAc(b1-4)GlcNAc(b1-4)GlcNAc(b1-4)GlcNAc(b1-4)GlcNAc
# How it was run: as §1
# [25] = molecular target: GlcNAc(b1-4)GlcNAc(b1-4)GlcNAc(b1-4)GlcNAc(b1-4)GlcNAc(b1-4)GlcNAc
# How it was run: as §1
# [26] = molecular target: GlcNAc(b1-4)[GlcNAc(b1-6)]GalNAc
# How it was run: as §1
# [27] = molecular target: GlcNAc(b1-6)Gal(b1-4)GlcNAc
# How it was run: as §1
# [28] = molecular target: GlcNAc(b1-6)GalNAc
# How it was run: as §1
# [29] = molecular target: GlcNAc6S(b1-3)Gal(b1-4)GlcNAc
# How it was run: as §1
# [30] = molecular target: Kdn(a2-3)Gal(b1-3)GalNAc
# How it was run: as §1
# [31] = molecular target: Kdn(a2-3)Gal(b1-3)GlcNAc
# How it was run: as §1
# [32] = molecular target: Kdn(a2-3)Gal(b1-4)Glc
# How it was run: as §1
# [33] = molecular target: Kdn(a2-3)Gal(b1-4)GlcNAc
# How it was run: as §1
# [34] = molecular target: Kdn(a2-3)Gal(b1-4)[Fuc(a1-3)]GlcNAc
# How it was run: as §1
# [35] = molecular target: Kdn(a2-6)Gal(b1-4)GlcNAc
# How it was run: as §1
# [36] = molecular target: Man(a1-2)Man(a1-2)Man(a1-3)Man
# How it was run: as §1
# [37] = molecular target: Man(a1-2)Man(a1-2)Man(a1-6)[Man(a1-3)]Man
# How it was run: as §1
# [38] = molecular target: Man(a1-2)Man(a1-3)Man
# How it was run: as §1
binder,measurement,setting,value
B1,glycan array binding signal (z-score),[1],1.93
same,glycan array binding signal (z-score),[2],0.971
same,glycan array binding signal (z-score),[3],1.39
same,glycan array binding signal (z-score),[4],0.678
same,glycan array binding signal (z-score),[5],2.38
same,glycan array binding signal (z-score),[6],1.21
same,glycan array binding signal (z-score),[7],1.16
same,glycan array binding signal (z-score),[8],1.65
same,glycan array binding signal (z-score),[9],0.415
same,glycan array binding signal (z-score),[10],-0.311
same,glycan array binding signal (z-score),[11],0.586
same,glycan array binding signal (z-score),[12],0.532
same,glycan array binding signal (z-score),[13],0.596
same,glycan array binding signal (z-score),[14],0.241
same,glycan array binding signal (z-score),[15],-0.313
same,glycan array binding signal (z-score),[16],-0.544
same,glycan array binding signal (z-score),[17],0.181
same,glycan array binding signal (z-score),[18],1.23
same,glycan array binding signal (z-score),[19],-0.516
same,glycan array binding signal (z-score),[20],-0.405
same,glycan array binding signal (z-score),[21],-0.361
same,glycan array binding signal (z-score),[22],0.467
same,glycan array binding signal (z-score),[23],-0.575
same,glycan array binding signal (z-score),[24],0.463
same,glycan array binding signal (z-score),[25],0.618
same,glycan array binding signal (z-score),[26],-0.604
same,glycan array binding signal (z-score),[27],0.022
same,glycan array binding signal (z-score),[28],-0.147
same,glycan array binding signal (z-score),[29],-0.864
same,glycan array binding signal (z-score),[30],1.54
same,glycan array binding signal (z-score),[31],-0.617
same,glycan array binding signal (z-score),[32],0.029
same,glycan array binding signal (z-score),[33],-0.422
same,glycan array binding signal (z-score),[34],0.229
same,glycan array binding signal (z-score),[35],0.172
same,glycan array binding signal (z-score),[36],-0.751
same,glycan array binding signal (z-score),[37],-0.437
same,glycan array binding signal (z-score),[38],-0.653

# Part of the list above, as tab-separated lines.
binder	measurement	setting	value
B1	glycan array binding signal (z-score)	[4]	0.678
same	glycan array binding signal (z-score)	[5]	2.38
